Source: PubChem BioAssay AID504594 (Broad Institute, 2011)
The campaign covered roughly 2,000 compounds. Fewer than 10 were called active.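 How the source made its calls: active means growth inhibition of at least 75% in every replicate, which also brings the mean inhibition to 75% or more; inconclusive means mean inhibition 75% or more but some replicate under 75%; inactive means the rest.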 Some of the results follow.

Test: reduced viability of yeast carrying PfHsp90 – S. cerevisiae, BacTiter-Glo luminescence, antimalarial PfHsp90 inhibitor project, primary screen (AID 504594);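 further: 0% = DMSO neutral control wells and 100% = 20 µM radicicol control wells; higher value means stronger growth inhibition because the sign is flipped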
Conditions: S. cerevisiae expressing PfHsp90, BacTiter-Glo growth, 48 h; at 9.4 µM; active compounds read high
In the case of `CCOc1cccc(N2C(=O)CC(N(CCc3ccc(OC)c(OC)c3)C(=O)CC)C2=O)c1` (stereo not drawn), the growth inhibition is reported as inactive: 2.48%. For `CCN(CCCCCN(C)C)Cc1cc2ccccc2o1`, the growth inhibition was inactive: -0.0353%. For `O=C1OCCN1/N=C/c1ccc([N+](=O)[O-])o1`, the growth inhibition was inactive: -15.3%. In the case of `COc1ccc(CCN(C)CC(=O)Nc2cc(C)nc3ccccc23)cc1OC`, the growth inhibition is reported as inactive: -16.9%. In the case of `COc1ccc(NC2=C(Cl)C(=O)N(c3ccccc3)C2=O)c(OC)c1`, the growth inhibition is reported as inactive: -1.15%. With `COc1ccc(NC(=O)C2CSC3c4ccccc4C(=O)N23)cc1` (stereo not drawn) the growth inhibition was inactive: -11.1%. For `O=C(COc1ccccc1)Nc1ccc2c(c1)C(=O)N(CC1CCCO1)C2=O` (stereo not drawn), the growth inhibition was inactive: 14.9%. With `COc1cc(Cl)cc2c1Sc1ccccc1/C2=C/CCN(C)C` the growth inhibition was inactive: 2.48%. With `COc1ccc(C2CC(c3c(O)cc(C)oc3=O)=NCCS2)c(OC)c1` (stereo not drawn) the growth inhibition was inactive: -2.18%. In the case of `CCOC(=O)c1cccc(C(=O)OCC)n1`, the growth inhibition is reported as inactive: -8.31%. With `O=C(Cc1ccccc1[N+](=O)[O-])NCCCN1CCOCC1` the growth inhibition was inactive: 3.4%. For `CC(C)(C)[C@]1(O)CCN2C[C@H]3c4ccccc4CCc4cccc(c43)[C@@H]2C1`, the growth inhibition was inactive: -9.67%. For `CN1[C@@H]2CC[C@H]1CC(OC(=O)C(CO)c1ccccc1)C2` (stereo partly drawn), the growth inhibition was inactive: -1.73%. For `COc1ccc(C2=C(CN(C)C)C(c3ccccc3)c3ccccc3O2)cc1` (stereo not drawn), the growth inhibition was inactive: -7.98%. In the case of `COc1ccc(CNCCC2(C(C)C)CCOC(C)(C)C2)cc1` (stereo not drawn), the growth inhibition is reported as inactive: -1.55%. For `CC1Cc2ccccc2N1NC(=O)c1ccc(Cl)c(S(N)(=O)=O)c1` (stereo not drawn), the growth inhibition was inactive: -8.98%. In the case of `CC(=O)Oc1cc2oc(=O)cc(C)c2cc1OC(C)=O`, the growth inhibition is reported as inactive: -2.57%. For `CC(=O)O[C@H]1C(=O)[C@@]2(C)[C@H]([C@H](OC(=O)c3ccccc3)[C@]3(O)C[C@H](OC(=O)[C@H](O)C(NC(=O)c4ccccc4)c4ccccc4)C(C)=C1C3(C)C)[C@]1(OC(C)=O)CO[C@@H]1C[C@@H]2O` (stereo partly drawn), the growth inhibition was inactive: 4.3%. With `Cn1c2[n+](c3ccc(Cl)cc3c1=O)Cc1ccccc1-2` the growth inhibition was inactive: 9.2%. For `O=C(NCCC(c1ccccc1)c1ccco1)c1cccs1` (stereo not drawn), the growth inhibition was inactive: -5.77%. For `Cc1ccc(C(=O)Nc2ccccc2C(=O)NC(C(=O)O)C(C)C)cc1` (stereo not drawn), the growth inhibition was inactive: 1.89%. In the case of `O=C(CCCn1c(=O)oc2ccccc21)N1CCN(c2ccc(F)cc2)CC1`, the growth inhibition is reported as inactive: -2.64%. In the case of `CCn1c(SCC(=O)c2ccccc2)nc2ccccc2c1=O`, the growth inhibition is reported as inactive: -10.3%. For `COc1ccc(C(=O)C2CCCCC2=O)cc1` (stereo not drawn), the growth inhibition was inactive: -0.967%. With `Cc1ccc(-n2cc(CNCCN3CCOC3=O)c(-c3ccc(F)cc3)n2)cc1` the growth inhibition was inactive: -1.08%. In the case of `COc1ccc(N2C(=O)[C@@H]3Cc4ccccc4CN3C2=O)cc1`, the growth inhibition is reported as inactive: -1.63%. In the case of `CCC(C(=O)OCCN(CC)CC)c1ccccc1` (stereo not drawn), the growth inhibition is reported as inactive: -6.66%. For `CC(C)(C)n1c(=O)[nH]c2c(c1=O)CCC2`, the growth inhibition was inactive: 3.02%. With `O=C1CC2(CCCC2)CC(=O)N1CCCCN1CCN(c2ncccn2)CC1` the growth inhibition was inactive: 5.29%. For `CC[C@H]1OC(=O)[C@H](C)[C@@H](O[C@H]2C[C@@](C)(OC)[C@@H](O)[C@H](C)O2)[C@H](C)[C@@H](O[C@@H]2O[C@H](C)C[C@H](N(C)C)[C@H]2O)[C@](C)(O)C[C@@H](C)[C@@H]2N[C@@H](COCCOC)O[C@H]([C@H]2C)[C@]1(C)O`, the growth inhibition was inactive: 7.68%. With `COc1ccc2c(CC(=O)NCC3CCC(C(=O)O)CC3)cc(=O)oc2c1` (stereo not drawn) the growth inhibition was inactive: 8.32%. For `CCOc1ccccc1OCCOc1ccc(F)cc1`, the growth inhibition was inactive: -4.49%. For `O=C1C(Cc2c[nH]c3ccccc23)NC(=S)N1Cc1ccccc1` (stereo not drawn), the growth inhibition was inactive: -3.78%. For `O=C1ON=C(c2ccc(Cl)cc2)/C1=C/c1ccc(O)cc1`, the growth inhibition was inactive: -12.5%. With `Cc1ccc(Cl)c(Nc2ccccc2C(=O)O)c1Cl` the growth inhibition was inactive: -7.61%. For `CC(C(=O)O)c1ccc(N2Cc3ccccc3C2=O)cc1` (stereo not drawn), the growth inhibition was inactive: -3.41%. With `CCn1nc(C(=O)O)c(=O)c2cc3c(cc21)OCO3` the growth inhibition was inactive: 4.33%. In the case of `COc1cccc(=O)c2c(C)n(CC(=O)c3ccccc3)c(C)c12`, the growth inhibition is reported as inactive: 0.258%. In the case of `Fc1ccc(-n2cc(CNCCc3ccccn3)c(-c3ccccc3Cl)n2)cc1`, the growth inhibition is reported as inactive: 9.13%. In the case of `CC(=O)Nc1ccc(S(=O)(=O)c2ccc(N)cc2)cc1`, the growth inhibition is reported as inactive: 6.28%. In the case of `CCCN1CCC(NC(=O)Nc2ccc(Br)cc2)CC1`, the growth inhibition is reported as inactive: -1.16%. For `CCS(=O)(=O)Nc1cc(OC)c(OC)cc1Cc1nccc2cc(OC)c(OC)cc12`, the growth inhibition was inactive: 1.03%. In the case of `CN(C)c1ccc(CNCCC(Cc2ccccc2)c2ccco2)cc1` (stereo not drawn), the growth inhibition is reported as inactive: -10.9%. In the case of `COc1cc(C2CC(=O)NC3=C2C(=O)CC(C)(C)C3)ccc1O` (stereo not drawn), the growth inhibition is reported as inactive: -7.05%. In the case of `N#C/C(=C/c1ccccc1)C(=O)NCc1ccccc1`, the growth inhibition is reported as inactive: -5.1%. In the case of `O=C(CCC1CCCN(C(=O)c2ccsc2)C1)NCc1ccc(F)c(F)c1` (stereo not drawn), the growth inhibition is reported as inactive: -8.05%. In the case of `Cc1cccc(C(=O)c2cccc(C)c2)c1`, the growth inhibition is reported as inactive: 0.336%. With `O=C(O)CCCc1ccccc1` the growth inhibition was inactive: 9.2%. In the case of `Cc1cnc(NC(=O)C2=C(O)c3ccccc3S(=O)(=O)N2C)s1`, the growth inhibition is reported as inactive: -6.36%. For `COc1ccc(/C=C\c2nc(=O)c3ccccc3o2)cc1`, the growth inhibition was inactive: 6.65%. For `CC1(C)O[C@@H]2C[C@H]3[C@@H]4CCC5=CC(=O)C=C[C@]5(C)[C@@]4(F)[C@@H](O)C[C@]3(C)[C@]2(C(=O)CO)O1`, the growth inhibition was inactive: 4.76%. In the case of `CCCOc1ccc(-c2cc(C(=O)NCC3CCCO3)c3ccccc3n2)cc1` (stereo not drawn), the growth inhibition is reported as inactive: 18%. For `O=C(NCCc1c[nH]c2ccccc12)c1cccnc1`, the growth inhibition was inactive: 7.04%. With `CC(=O)OCC(OC(C)=O)C(OC(C)=O)C(OC(C)=O)C(=O)Nc1cccc(C)c1` (stereo not drawn) the growth inhibition was inactive: -0.0548%. For `CC1CC(OC(=O)C(O)c2ccccc2)CC(C)(C)N1C` (stereo not drawn), the growth inhibition was inactive: 6.86%. For `Cc1nnc(NS(=O)(=O)c2ccc(N)cc2)s1`, the growth inhibition was inactive: 0.395%. In the case of `CCN1CCN(c2cc3c(cc2F)c(=O)c(C(=O)O)cn3C2CC2)CC1`, the growth inhibition is reported as inactive: -0.915%. For `CC(C)N1C(=O)/C(=C\c2nc3ccccc3c(=O)[nH]2)c2ccccc21`, the growth inhibition was inactive: 40.8%.
